Laboratory results published in patent US20250034273A1.
These are yes or no findings as the source states them, for the method shown. Some binding calls cover weakened binding; strength is not graded here.

Protein sequences, listed by entry. Tags and fused reporters are not part of them. Residues count along the entry.
UniProt Q9NZQ7, residues 19-290: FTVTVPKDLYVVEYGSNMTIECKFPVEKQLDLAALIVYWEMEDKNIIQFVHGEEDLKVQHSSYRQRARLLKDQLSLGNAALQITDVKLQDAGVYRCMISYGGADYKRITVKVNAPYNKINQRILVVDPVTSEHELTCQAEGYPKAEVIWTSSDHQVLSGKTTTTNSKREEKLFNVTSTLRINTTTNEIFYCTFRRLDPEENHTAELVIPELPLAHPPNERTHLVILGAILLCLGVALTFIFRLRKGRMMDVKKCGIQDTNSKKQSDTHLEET
UniProt P09758, residues 27-274: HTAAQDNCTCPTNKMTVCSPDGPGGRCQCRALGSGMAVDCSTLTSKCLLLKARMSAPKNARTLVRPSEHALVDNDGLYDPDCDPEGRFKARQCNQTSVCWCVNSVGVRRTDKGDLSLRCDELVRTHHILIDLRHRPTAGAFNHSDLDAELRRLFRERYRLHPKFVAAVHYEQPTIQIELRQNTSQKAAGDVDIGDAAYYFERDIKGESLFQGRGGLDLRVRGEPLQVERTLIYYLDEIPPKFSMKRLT
UniProt Q15116, residues 25-288: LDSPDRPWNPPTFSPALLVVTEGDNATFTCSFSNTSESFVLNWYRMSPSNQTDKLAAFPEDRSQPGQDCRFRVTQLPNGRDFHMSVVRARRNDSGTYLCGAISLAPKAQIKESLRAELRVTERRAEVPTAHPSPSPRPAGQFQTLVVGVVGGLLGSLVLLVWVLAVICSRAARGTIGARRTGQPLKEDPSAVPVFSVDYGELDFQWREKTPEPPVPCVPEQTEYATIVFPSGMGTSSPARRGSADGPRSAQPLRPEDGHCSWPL

Key:
[1] = target: PDL1 expressed on HEK293 (293F) cells (UniProt Q9NZQ7); assay: flow cytometry on PDL1-expressing 293F cells
[2] = target: PDL1 expressed on HEK293 (293F) cells (UniProt Q9NZQ7); assay: flow cytometry on 293F cells expressing PDL1, detection Anti-mIgG PE
[3] = target: PDL1 expressed on HEK293 (293F) cells (UniProt Q9NZQ7); assay: flow cytometry on PDL1-expressing HEK293 cells
[4] = target: T1, Tigit expressed on HEK293 (293F) cells (UniProt Q495A1); assay: flow cytometry on 293F cells expressing Tigit, PE-A
T1 sequence (looked up): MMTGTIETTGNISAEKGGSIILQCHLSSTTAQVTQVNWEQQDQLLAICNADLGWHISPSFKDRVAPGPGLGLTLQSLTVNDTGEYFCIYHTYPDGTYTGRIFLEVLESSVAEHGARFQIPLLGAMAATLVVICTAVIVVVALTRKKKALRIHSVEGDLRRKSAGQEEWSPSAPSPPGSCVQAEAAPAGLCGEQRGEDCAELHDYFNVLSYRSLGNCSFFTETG

[5] = target: T1, Tigit expressed on HEK293 (293F) cells; assay: flow cytometry on Tigit-expressing 293F cells
[6] = target: T1, Tigit expressed on HEK293 (293F) cells; assay: flow cytometry on Tigit-expressing HEK293 cells
[7] = target: T1, Tigit expressed on HEK293 (293F) cells; assay: flow cytometry on 293F cells expressing Tigit, Binding (% Total)
human Trop2 (human) = human Trop2 (human) (UniProt P09758); assay: absorbance assay (Net absorbance, Abs 450) on 'Trop2-hFc'; one unprinted antibody concentration
[8] = target: PD1 expressed on HEK293F cells (UniProt Q15116); assay: cell binding, PD1-expressing HEK293F cells

B1: humanized anti-PDL1 antibody (Clone 2A6) (antibody, V domains shown)
VH: QVQLVQSGAEVKKPGASVKVSCKASGYTFTEYTMHWVRQAPGQRLEWMGWFFPGSGSIKYSQKFQGRVTITRDTSASTAYMELSSLRSEDTAVYYCARHERGFAYWGQGTLVTVSS
VL: DIVLTQSPASLAVSPGQRATITCRASASSSVSYIHWYQQKPGQPPKLLIYSTSNKDTGVPARFSGSGSGTDFTLTINPVEANDTANYYCHQWSSYPWTFGQGTKVEIK
- binding [1]: binds
- binding [2]: binds
- binding [3]: binds

B2: humanized anti-Tigit antibody (Clone 4F11) (antibody, V domains shown)
VH: QVQLVQSGAEVKKPGASVKVSCKVSGYTFTEYTMHWVRQAPGKGLEWMGGINPNNGGTIYAQKFQGRVTMTEDTSTDTAYMELSSLRSEDTAVYYCARLVLRYWYFDVWGRGTLVTVSS
VL: DIQMTQSPSSLSASVGDRVTITCRASASSNVIYLAWYQQKPGKAPKLLLYDTSRLESGVPSRFSGSGSGTDYTLTISSLQPEDFATYYCQQWSSNPLTFGGGTKVEIK
- binding [4]: binds
- binding [5]: binds
- binding [6]: binds
- binding [7]: binds

B3: h8B5-h3G8v2, bispecific anti-Trop2 (h8B5) / anti-CD3 (h3G8 scFv V2, VL-VH with 3xGS linker) (bispecific antibody, human IgG1, kappa)
heavy: EVQLVESGGGLVQPGGSLRLSCAASGFTFSTYTMSWVRQTPAKGLVWVSTINSDGYNIYYSDSMKGRFTISRDNAKYTLYLQMNSLRAEDTAMYYCARCSYYSYDYFDYWGQGTLVTVSSASTKGPSVFPLAPSSKSTSGGTAALGCLVKDYFPEPVTVSWNSGALTSGVHTFPAVLQSSGLYSLSSVVTVPSSSLGTQTYICNVNHKPSNTKVDKRVEPKSCDKTHTCPPCPAPELLGGPSVFLFPPKPKDTLMISRTPEVTCVVVDVSQEDPEVQFNWYVDGVEVHNAKTKPREEQFNSTYRVVSVLTVLHQDWLNGKEYKCKVSNKGLPSSIEKTISKAKGQPREPQVYTLPPSQEEMTKNQVSLTCLVKGFYPSDIAVEWESNGQPENNYKTTPPVLDSDGSFFLYSRLTVDKSRWQEGNVFSCSVMHEALHNHYTQKSLSLSLGKPAGGGGSDIVMTQSPDSLAVSLGERATINCKSSQSLLNSRTRKNYLAWYQQKPGQPPKLLIYWASTRESGVPDRFSGSGSGTDFTLTISSLQAEDVAVYYCTQSFILRTFGQGTKVEIKGGGGSGGGGSGGGGSQVQLVQSGAEVKKPGASVKVSCKASGYTFTSYYMHWVRQAPGQGLEWMGWIYPENVNTNYAQKFQGRVTMTRDTSISTAYMELSRLRSDDTAVYYCARDSYGSYFFDYWGQGTLVTVSS
light: DIQMTQSPSSLSASVGDRVTITCRASENIDNYLAWYQQKQGKVPKLLIYAATNLADGMPSRFSGSGSGTDFTLTISSLQPEDVATYYCQHYYSNQLTFGQGTKLEIKRTVAAPSVFIFPPSDEQLKSGTASVVCLLNNFYPREAKVQWKVDNALQSGNSQESVTEQDSKDSTYSLSSTLTLSKADYEKHKVYACEVTHQGLSSPVTKSFNRGEC
- binding (human Trop2 (human)): binds

B4: h8B5-h3G8v3, bispecific anti-Trop2 (h8B5) / anti-CD3 (h3G8 scFv V3, VH-VL with 6xGS linker) (bispecific antibody, human IgG1, kappa)
heavy: EVQLVESGGGLVQPGGSLRLSCAASGFTFSTYTMSWVRQTPAKGLVWVSTINSDGYNIYYSDSMKGRFTISRDNAKYTLYLQMNSLRAEDTAMYYCARCSYYSYDYFDYWGQGTLVTVSSASTKGPSVFPLAPSSKSTSGGTAALGCLVKDYFPEPVTVSWNSGALTSGVHTFPAVLQSSGLYSLSSVVTVPSSSLGTQTYICNVNHKPSNTKVDKRVEPKSCDKTHTCPPCPAPELLGGPSVFLFPPKPKDTLMISRTPEVTCVVVDVSQEDPEVQFNWYVDGVEVHNAKTKPREEQFNSTYRVVSVLTVLHQDWLNGKEYKCKVSNKGLPSSIEKTISKAKGQPREPQVYTLPPSQEEMTKNQVSLTCLVKGFYPSDIAVEWESNGQPENNYKTTPPVLDSDGSFFLYSRLTVDKSRWQEGNVFSCSVMHEALHNHYTQKSLSLSLGKPAGGGGSQVQLVQSGAEVKKPGASVKVSCKASGYTFTSYYMHWVRQAPGQGLEWMGWIYPENVNTNYAQKFQGRVTMTRDTSISTAYMELSRLRSDDTAVYYCARDSYGSYFFDYWGQGTLVTVSSGGGGSGGGGSGGGGSGGGGSGGGGSGGGGSDIVMTQSPDSLAVSLGERATINCKSSQSLLNSRTRKNYLAWYQQKPGQPPKLLIYWASTRESGVPDRFSGSGSGTDFTLTISSLQAEDVAVYYCTQSFILRTFGQGTKVEIK
light: B3 light
- binding (human Trop2 (human)): binds

B5: ARB204, CDH17-PD1 bispecific antibody (anti-CDH17 10C12 Fab, anti-PD1 1C8 scFv) (bispecific antibody, human IgG1, kappa)
heavy: EVQLVESGGGLVQPGGSLRLSCAASGFTFSSYAMSWVRQTPGKGLEWVAVIDSNGGSTYYPDTVKDRFTISRDNSKNTLYLQMNSLRAEDTAVYYCSSYTNLGAYWGQGTLVTVSAASTKGPSVFPLAPSSKSTSGGTAALGCLVKDYFPEPVTVSWNSGALTSGVHTFPAVLQSSGLYSLSSVVTVPSSSLGTQTYICNVNHKPSNTKVDKRVEPKSCDKTHTCPPCPAPELLGGPSVFLFPPKPKDTLMISRTPEVTCVVVDVSQEDPEVQFNWYVDGVEVHNAKTKPREEQFNSTYRVVSVLTVLHQDWLNGKEYKCKVSNKGLPSSIEKTISKAKGQPREPQVYTLPPSQEEMTKNQVSLTCLVKGFYPSDIAVEWESNGQPENNYKTTPPVLDSDGSFFLYSRLTVDKSRWQEGNVFSCSVMHEALHNHYTQKSLSLSLGKPAGGGGSEVQLVESGGGLVQPGGSLRLSCAASGFTFSRSTMSWVRQAPGKGLEWVATISGGGLNTYFPDSVKGRFTISRDNSKNTLYLQMNSLRAEDTAVYYCTRNSNSYYFALDYWGQGTLVTVSSGGGGSGGGGSGGGGSEIVLTQSPATLSLSPGERATLSCRASESVDNSGVSFMNWYQQKPGQAPRLLIYIASNQVSGIPARFSGSGSGTDFTLTISSLEPEDFAVYYCQQIKEVPWTFGGGTKVEIK
light: DIQMTQSPSSLSASVGDRVTITCRASQDISGYLNWLQQKPGGAIKRLIYTTSTLDSGVPKRFSGSGSGTDFTLTISSLQSEDFATYYCLQYASSPFTFGGGTKVEIKRTVAAPSVFIFPPSDEQLKSGTASVVCLLNNFYPREAKVQWKVDNALQSGNSQESVTEQDSKDSTYSLSSTLTLSKADYEKHKVYACEVTHQGLSSPVTKSFNRGEC
- binding [8]: binds
